Measurements taken from PubChem BioAssay AID2098 (Broad Institute, 2009).
About 2,300 (0.77%) of roughly 300,000 compounds were called active. Inconclusive results, whose numbers are uncertain, are shown with a selection of clear calls.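 How the source made its calls: active means more than half of replicate wells show activity change below -50%, luminescence cut by over half; inconclusive means some wells, but at most half, below -50%; inactive means no replicate well below -50%.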

Experiment: HSF1 inhibitors in luciferase reporter cells, primary screen, cell-based, NIH3T3, luminescence (AID 2098);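 further: luciferase reports HSF-1 transcriptional activity via heat shock element; 0% = median of DMSO wells and -100% = zero luminescence signal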
Conditions: NIH3T3-HGL HSE-luciferase, MG132-induced, luminescence 8 h; active compounds read low; screened at 7.5 µM (by protocol)

| Structure (SMILES) | activity change, negative = inhibition |
| --- | --- |
| Fc1ccccc1NC(=S)Nc1ccc(CN2CCOCC2)cc1 | inconclusive: -45.3% |
| CCN(CC)CCCN(C(=O)c1ccco1)c1nc(-c2ccc(C)cc2)cs1 | active: -69.4% |
| CCN(CC(=O)Nc1ccc(NC(C)=O)cc1)C(=O)C12CC3CC(CC(Cl)(C3)C1)C2 | inconclusive: -52.1% |
| COc1ccc(Cn2nnnc2C(c2cc3cccc(C)c3[nH]c2=O)N2CCN(C)CC2)cc1 (stereo not given) | inconclusive: -47.4% |
| CCOc1ccc(N2CSC(=S)N(c3ccc(OCC)cc3)C2)cc1 | active: -64.7% |
| COc1ccc2oc(C(=O)N3CCc4ccccc43)c(C)c2c1 | inconclusive: -50.9% |
| CCOC(=O)c1sc(NC(=O)CSc2n[nH]c(-c3ccccc3)n2)c(C#N)c1C | inconclusive: -46.5% |
| Cc1ccc2nc(NC(=O)CSCC(=O)OCC(=O)c3ccccc3)sc2c1 | active: -66.6% |
| COc1ccc(OCC(=O)OCC(=O)Nc2ccc(S(=O)(=O)N3CCCCC3)cc2)cc1 | inconclusive: -50% |
| CCC(C)(NC(=O)c1ccccc1)C(=O)O (stereo not given) | inconclusive: -46.8% |
| C=CCn1c(CCCNC(=O)C(C)(C)C)nc2ccccc21 | inconclusive: -49.8% |
| Cc1ccc(CNC(=O)CNS(=O)(=O)c2ccc3nc(C)sc3c2)cc1 | inactive: -3.11% |
| NNC(=O)c1cccc(COc2ccc3c(c2)CCC3)c1 | inconclusive: -52.8% |
| CC(=O)C(C(C)=O)c1c(Cl)c(O)c(O)c2c(C(=O)c3ccccc3)coc12 | inconclusive: -47.3% |
| CC1(C)CC(NCc2ccc3c(c2)OCO3)CCO1 (stereo not given) | inconclusive: -51.7% |
| CN(C(=O)c1nn(C)c2c1CSc1ccccc1-2)c1ccc(F)cc1 | inactive: -2.9% |
| S=C(N/N=C/c1ccc2ncccc2c1)Nc1ccccc1 | inconclusive: -49% |
| Cc1ccc(F)cc1NC(=S)NCCc1ccccc1 | inconclusive: -46.7% |
| CCCS(=O)(=O)c1nnnn1-c1cccc(OC)c1 | active: -94.7% |
| COCCn1c(C)cc(C(=O)COC(=O)c2n[nH]c3ccccc23)c1C | inconclusive: -49.9% |
| O=C(CNC(=O)c1nc[nH]c1C(=O)NCC(=O)OCc1ccccc1)OCc1ccccc1 | inconclusive: -48.8% |
| O=C(Cn1nc2ccccc2n1)N/N=C/c1cc([N+](=O)[O-])ccc1O | active: -53.3% |
| COc1ccc(CN(C)C(=O)c2cc(S(=O)(=O)N3CCOCC3)ccc2N2CCCC2)cc1 | inconclusive: -50.5% |

| Structure (SMILES) | activity change, negative = inhibition |
| --- | --- |
| CC(=O)Nc1ccc(NC(=O)C(C)OC(=O)c2cccc(S(=O)(=O)N3CCCC3)c2)cc1 (stereo not given) | inactive: -3.68% |
| O=c1c2ccc(Cl)cc2nc(-c2cccc(C(F)(F)F)c2)n1O | inconclusive: -48.8% |
| CCOc1ccc(-c2cnc(NCc3cccc4ccccc34)n2CCOC)cc1 | active: -83.3% |
| FC(F)Oc1ccc(NC(=S)NNc2ccnc3cc(Cl)ccc23)cc1 | inconclusive: -50.4% |
| O=C(NC(=S)NCCC1=CCCCC1)c1cncc(Br)c1 | inconclusive: -47.3% |
| CCN1CCN(Cc2ccc(NC(=O)Nc3cccs3)cc2)CC1 | inconclusive: -47.6% |
| Cc1ccc(NC(=O)c2c(C(F)(F)F)nn(C)c2SCc2ccc(Cl)cc2)cc1C | inconclusive: -41.4% |
| O=S(=O)(c1ccc(Br)cc1)c1nc(-c2ccccc2)oc1N1CCOCC1 | inconclusive: -25.1% |
| O=c1c(Cl)c(Cl)cnn1Cc1nnc(-c2ccc(Cl)cc2)o1 | inconclusive: 24.5% |
| CCCCCn1c(SCC(=O)CC(=O)OCC)nc2cc(C(=O)N3CCC(C(N)=O)CC3)ccc2c1=O | inconclusive: -25.3% |
| CCn1cc(SCC(=O)N2CCOCC2)c2ccccc21 | inactive: 10.5% |
| O=C(OCCCN1CCOCC1)c1ccc(O)c(O)c1 | active: -65% |
| CC1(C)CC(=O)C(=Cc2cn(-c3ccccc3)nc2-c2ccc(Cl)cc2)C(=O)C1 | inconclusive: -0.9% |
| CCN(CC)S(=O)(=O)c1ccc(OC)c(NC(=O)c2ccc([N+](=O)[O-])cc2)c1 | inactive: -0.238% |
| O=C(Nc1ccc2c(c1)OCCO2)N1CCN(c2ccccc2)CC1 | active: -56.9% |
| CCCCCCN1C=CC(=C2C(=O)c3ccccc3C2=O)C=C1 | inconclusive: -49.5% |
| COC(=O)C(Cc1ccc(O)cc1)NC(=O)NC12CC3CC(CC(C3)C1)C2 (stereo not given) | inactive: -2.14% |
| O=C(Oc1ccccc1C(=O)Nc1ccccc1)c1ccc(Br)c([N+](=O)[O-])c1 | inactive: 21.5% |
| COc1ccc(OC)c(C(=O)NC(CC(N)=O)c2ccc(NCCOc3ccccc3)c([N+](=O)[O-])c2)c1 (stereo not given) | inactive: 5.19% |
| COc1ccc(C(=O)NC(=S)NNC(=O)c2ccco2)cc1 | inconclusive: -50.5% |
| CCN(CC)CCCNC(=O)C1CCC(CNS(=O)(=O)c2ccc(Cl)cc2)CC1 (stereo not given) | active: -67.3% |
| COc1ccc(C(=O)Nc2nc3ccccc3s2)c(OC)c1 | active: -93% |
| O=C(Nc1ccc(Cl)cn1)c1ccc2c(Cl)c3c(nc2c1)CCC3 | inconclusive: -49.1% |

Rewritten tab-delimited: 25 of the compounds above.
Structure (SMILES)	activity change, negative = inhibition
COCCn1c(C)cc(C(=O)COC(=O)c2n[nH]c3ccccc23)c1C	inconclusive: -49.9%
O=C(CNC(=O)c1nc[nH]c1C(=O)NCC(=O)OCc1ccccc1)OCc1ccccc1	inconclusive: -48.8%
O=C(Cn1nc2ccccc2n1)N/N=C/c1cc([N+](=O)[O-])ccc1O	active: -53.3%
COc1ccc(CN(C)C(=O)c2cc(S(=O)(=O)N3CCOCC3)ccc2N2CCCC2)cc1	inconclusive: -50.5%
CC(=O)Nc1ccc(NC(=O)C(C)OC(=O)c2cccc(S(=O)(=O)N3CCCC3)c2)cc1 (stereo not given)	inactive: -3.68%
O=c1c2ccc(Cl)cc2nc(-c2cccc(C(F)(F)F)c2)n1O	inconclusive: -48.8%
CCOc1ccc(-c2cnc(NCc3cccc4ccccc34)n2CCOC)cc1	active: -83.3%
FC(F)Oc1ccc(NC(=S)NNc2ccnc3cc(Cl)ccc23)cc1	inconclusive: -50.4%
O=C(NC(=S)NCCC1=CCCCC1)c1cncc(Br)c1	inconclusive: -47.3%
CCN1CCN(Cc2ccc(NC(=O)Nc3cccs3)cc2)CC1	inconclusive: -47.6%
Cc1ccc(NC(=O)c2c(C(F)(F)F)nn(C)c2SCc2ccc(Cl)cc2)cc1C	inconclusive: -41.4%
O=S(=O)(c1ccc(Br)cc1)c1nc(-c2ccccc2)oc1N1CCOCC1	inconclusive: -25.1%
O=c1c(Cl)c(Cl)cnn1Cc1nnc(-c2ccc(Cl)cc2)o1	inconclusive: 24.5%
CCCCCn1c(SCC(=O)CC(=O)OCC)nc2cc(C(=O)N3CCC(C(N)=O)CC3)ccc2c1=O	inconclusive: -25.3%
CCn1cc(SCC(=O)N2CCOCC2)c2ccccc21	inactive: 10.5%
O=C(OCCCN1CCOCC1)c1ccc(O)c(O)c1	active: -65%
CC1(C)CC(=O)C(=Cc2cn(-c3ccccc3)nc2-c2ccc(Cl)cc2)C(=O)C1	inconclusive: -0.9%
CCN(CC)S(=O)(=O)c1ccc(OC)c(NC(=O)c2ccc([N+](=O)[O-])cc2)c1	inactive: -0.238%
O=C(Nc1ccc2c(c1)OCCO2)N1CCN(c2ccccc2)CC1	active: -56.9%
CCCCCCN1C=CC(=C2C(=O)c3ccccc3C2=O)C=C1	inconclusive: -49.5%
COC(=O)C(Cc1ccc(O)cc1)NC(=O)NC12CC3CC(CC(C3)C1)C2 (stereo not given)	inactive: -2.14%
O=C(Oc1ccccc1C(=O)Nc1ccccc1)c1ccc(Br)c([N+](=O)[O-])c1	inactive: 21.5%
COc1ccc(OC)c(C(=O)NC(CC(N)=O)c2ccc(NCCOc3ccccc3)c([N+](=O)[O-])c2)c1 (stereo not given)	inactive: 5.19%
COc1ccc(C(=O)NC(=S)NNC(=O)c2ccco2)cc1	inconclusive: -50.5%
CCN(CC)CCCNC(=O)C1CCC(CNS(=O)(=O)c2ccc(Cl)cc2)CC1 (stereo not given)	active: -67.3%

(continued)

| Structure (SMILES) | activity change, negative = inhibition |
| --- | --- |
| CN(C)c1nc(-c2ccccc2)cc(C(F)(F)F)c1C#N | inconclusive: -18% |
| CC(NC(=O)C1CCCN1S(=O)(=O)c1ccc2c(c1)n(C)c(=O)c(=O)n2C)c1ccccc1 (stereo not given) | inconclusive: -50.3% |
| COc1ccc2cc(C(=O)NCc3ccccc3)c(=Nc3ccc(C(=O)O)cc3)oc2c1 | inconclusive: -53% |
| Cc1ccc2oc(/N=C(\N)NC(=O)C(C)(C)C)nc2c1 | active: -90.9% |
| Clc1ccccc1/C=N/NC1=Nc2cccc3cccc1c23 | inactive: -17% |
| CC1(C)CC(=O)c2cc(OCC(=O)N3CCN(c4ccccc4F)CC3)ccc2O1 | inconclusive: -50.6% |
| CCOC(=O)C1(Cc2ccccc2)CCCN(CCCn2cccn2)C1 (stereo not given) | inconclusive: -49.9% |
| CN1CCN(c2ccc(NC(=O)c3ccc4ccccc4c3)cc2)CC1 | inconclusive: -56.2% |
| O=C(CNC(=O)c1ccco1)Nc1ccc2c(c1)OCCO2 | active: -66.7% |
| CCN1CCN(/C=N/c2nc3c(s2)CCCC3)CC1 | active: -55.4% |
| CC1CCCC(NC(=S)NC(=O)c2ccccc2Br)C1C (stereo not given) | inactive: -5.22% |
| Cc1cc(-c2c(C)[nH]n(-c3ccc(Cl)cc3)c2=O)n[nH]1 | inactive: -3.1% |
| COc1ccc(-n2c(C)c(C(C)=O)c3cc(O)ccc32)cc1 | inconclusive: -49.8% |
| NC(=O)COC(=O)/C=C/c1ccc2ccccc2n1 | inconclusive: -34.5% |
| COc1ccc(O)c(-c2c(-c3ccc(Cl)cc3)n[nH]c2C)c1 | inconclusive: -50.8% |
| C/C=C(\C)CN1CCN(c2ccc(C)cc2)CC1 | inconclusive: -38.8% |
| c1ccc(-c2ccc(-c3nc(-c4ccccn4)no3)cc2)cc1 | active: -87.7% |
| COc1cccc(-c2nn(-c3ccccc3)cc2C(=O)O)c1 | inactive: -2.9% |
| O=C(Cn1cnc2c(nnn2Cc2ccc(Cl)cc2)c1=O)N1CCCc2ccccc21 | inconclusive: -52.4% |
| CCC(N=c1cc(-c2ccc(OC)c(OC)c2)oc2ccc(C)cc12)C(=O)O (stereo not given) | inconclusive: -51.9% |
| O=C(CSc1cn[nH]n1)Nc1ccc(O)c(C(=O)O)c1 | inconclusive: -51.5% |
| COc1ccc(/C=C/C(=O)Oc2ccc(/C=N/NC(=O)COc3c(C)cccc3C)cc2)cc1 | inconclusive: -50.3% |
| Cc1cccc(-c2noc(CCCC(=O)NC3CCCC3)n2)c1 | inconclusive: -45.9% |

| Structure (SMILES) | activity change, negative = inhibition |
| --- | --- |
| O=C(Nc1cccnc1)c1coc(=O)c2ccccc12 | inconclusive: -50.1% |
| O=C(CNC(=O)c1ccccc1C(F)(F)F)N/N=C/c1cccs1 | inactive: -4.2% |
| CC(C)NC(=O)CN(Cc1ccc(F)cc1)C(=O)CCC(=O)Nc1ccccn1 | inactive: -5.28% |
| COc1cccc(-c2nc(CS(=O)(=O)CC(=O)NCCc3cc(OC)ccc3OC)c(C)o2)c1 | inactive: 2.84% |
| C/C(=N\Nc1nc(C(=O)O)cs1)c1ccccc1 | inconclusive: -53.2% |
| O=C(CCCN1C(=O)/C(=C/c2ccccc2Cl)SC1=S)Nc1cccnc1 | inconclusive: -51.5% |
| CC(C)(C)C(=O)/C(=C\c1ccc([N+](=O)[O-])cc1)n1cncn1 | inconclusive: -24.7% |
| CC(=O)c1c(C)[nH]c(C(=O)Nc2ccc(C)c(S(=O)(=O)N(C)C)c2)c1C | inactive: 12.9% |
| CCOC(=O)N/N=C\c1ccc([N+](=O)[O-])s1 | inactive: 9.48% |
| O=C(CSc1nnc(CNC(=O)c2ccccc2)o1)NCCc1ccccc1 | inconclusive: -48.7% |
| Cc1cc(C)c2sc(NC(=O)C3=COCCO3)nc2c1 | inactive: 30.1% |
| COc1ccc(/C=N/NS(=O)(=O)c2ccc(F)cc2)cc1COc1cc(F)ccc1[N+](=O)[O-] | inactive: 11.9% |
| O=C1c2[nH]nc(-c3ccccc3O)c2C(c2ccc(F)cc2)N1Cc1ccco1 (stereo not given) | inactive: -3.04% |
| COCCNc1nc2ccccc2n2cnnc12 | inactive: -0.533% |
| O=C1CC(Sc2nnc(-c3ccccc3)o2)C(=O)N1c1ccccc1 (stereo not given) | inconclusive: -35.7% |
| CCOC(=O)n1c(SCC(N)=O)nc2ccccc21 | active: -65.4% |
| COc1ccc(Cl)cc1N(CC(=O)N1CCN(Cc2ccccc2)CC1)S(C)(=O)=O | inconclusive: -50.9% |
| CC1CCCN(S(=O)(=O)c2ccc(Br)s2)C1 (stereo not given) | inconclusive: -51.5% |
| COc1cccc(-n2ccnc2SCC(=O)Nc2ccccc2F)c1 | inconclusive: -50.2% |
| Cc1cc(C)n(C(CC(=O)O)C(=O)O)n1 (stereo not given) | inconclusive: -46.3% |
| O=C(O)c1ccc(N/N=C/c2ccc(-c3ccccc3Cl)o2)cc1 | inconclusive: -49.6% |
